# Values of other authors in publication PMC5026937 (Antiviral research, 2016).
# What was measured:
# [1] = system: phosphatase activity of calcineurin; settings: ref Jeffery, 1991; cited from earlier work
# [2] = ref Jeffery, 1991; cited from earlier work
compound,measurement,setting,value
"C/C=C/C[C@@H](C)[C@@H](O)[C@H]1C(=O)N[C@@H](CC)C(=O)N(C)CC(=O)N(C)[C@@H](CC(C)C)C(=O)N[C@@H](C(C)C)C(=O)N(C)[C@@H](CC(C)C)C(=O)N[C@@H](C)C(=O)N[C@H](C)C(=O)N(C)[C@@H](CC(C)C)C(=O)N(C)[C@@H](CC(C)C)C(=O)N(C)[C@H](C(C)C)C(=O)N1C [CsH (5), Cyclosporine H]",inhibition of the phosphatase activity of calcineurin,[1],does not inhibit the phosphatase activity of calcineurin
same,immunosuppressant activity,[2],no immunosuppressant activity
